In this assay the target is mScarlet-tagged human NuMA C-terminal fragment aa 1701-1981, mScarlet-NuMA^(C-term S1) (human) (UniProt Q14980). Briefly: mass photometry; TwoMP mass photometer; 5-20 nM protein in the respective TIRF microscopy assay buffer without methylcellulose; monomer to dimer; both purified.

The source of these data is publication PMC11812572.

No constants are given. Whether binding was seen depends on the method and setting. Tags and fused reporters may be left off the sequences shown.

B1: mScarlet-tagged human NuMA C-terminal fragment aa 1701-1981, mScarlet-NuMA^(C-term S1) (domain or fragment, UniProt Q14980-1 1701-1981)
chain: QVATDALKSREPQAKPQLDLSIDSLDLSCEEGTPLSITSKLPRTQPDGTSVPGEPASPISQRLPPKVESLESLYFTPIPARSQAPLESSLDSLGDVFLDSGRKTRSARRRTTQIINITMAKKLDVEEPDSANSSFYSTRSAPASQASLRATSSTQSLARLGSPDYGNSALLSLPGYRPTTRSSARRSQAGVSSGAPPGRNSFYMGTCQDEPEQLDDWNRIAELQQRNRVCPPHLKTCYPLESRPSLSLGTITDEEMKTGDPQETLRRASMQPIQIAEGTGI
Regarding B1, the binding entry was “no binding (tested: 5-20 nM)”.
